According to publication PMC12503277:
These are yes or no findings as the source states them, for the method shown. In cells and extracts the contact can be indirect. Some results given as binding are weak or reduced against the parent protein; the word gives no strength. Where a sequence is shown, tags or fusion partners need not be part of it.

Protein sequences, listed by entry. Tags and fused reporters are not part of them.
UniProt Q8N884: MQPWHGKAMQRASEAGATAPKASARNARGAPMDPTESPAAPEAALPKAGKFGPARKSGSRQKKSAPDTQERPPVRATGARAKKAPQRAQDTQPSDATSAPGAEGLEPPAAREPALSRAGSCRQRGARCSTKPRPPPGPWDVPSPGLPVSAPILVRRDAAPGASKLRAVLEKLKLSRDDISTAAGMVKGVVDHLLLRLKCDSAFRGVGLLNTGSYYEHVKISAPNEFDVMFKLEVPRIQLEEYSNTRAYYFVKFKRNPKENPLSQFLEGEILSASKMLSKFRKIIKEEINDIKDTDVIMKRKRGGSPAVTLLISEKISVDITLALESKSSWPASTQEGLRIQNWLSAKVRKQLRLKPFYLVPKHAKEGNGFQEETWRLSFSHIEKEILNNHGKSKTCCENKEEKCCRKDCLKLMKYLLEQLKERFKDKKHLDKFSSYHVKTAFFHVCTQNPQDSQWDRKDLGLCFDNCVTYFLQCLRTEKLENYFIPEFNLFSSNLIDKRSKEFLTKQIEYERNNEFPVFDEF

Legend:
HA-DDX21 (human) = target: T1, HA-DDX21 (human) (UniProt Q9NR30); assay: co-IP
T1 sequence: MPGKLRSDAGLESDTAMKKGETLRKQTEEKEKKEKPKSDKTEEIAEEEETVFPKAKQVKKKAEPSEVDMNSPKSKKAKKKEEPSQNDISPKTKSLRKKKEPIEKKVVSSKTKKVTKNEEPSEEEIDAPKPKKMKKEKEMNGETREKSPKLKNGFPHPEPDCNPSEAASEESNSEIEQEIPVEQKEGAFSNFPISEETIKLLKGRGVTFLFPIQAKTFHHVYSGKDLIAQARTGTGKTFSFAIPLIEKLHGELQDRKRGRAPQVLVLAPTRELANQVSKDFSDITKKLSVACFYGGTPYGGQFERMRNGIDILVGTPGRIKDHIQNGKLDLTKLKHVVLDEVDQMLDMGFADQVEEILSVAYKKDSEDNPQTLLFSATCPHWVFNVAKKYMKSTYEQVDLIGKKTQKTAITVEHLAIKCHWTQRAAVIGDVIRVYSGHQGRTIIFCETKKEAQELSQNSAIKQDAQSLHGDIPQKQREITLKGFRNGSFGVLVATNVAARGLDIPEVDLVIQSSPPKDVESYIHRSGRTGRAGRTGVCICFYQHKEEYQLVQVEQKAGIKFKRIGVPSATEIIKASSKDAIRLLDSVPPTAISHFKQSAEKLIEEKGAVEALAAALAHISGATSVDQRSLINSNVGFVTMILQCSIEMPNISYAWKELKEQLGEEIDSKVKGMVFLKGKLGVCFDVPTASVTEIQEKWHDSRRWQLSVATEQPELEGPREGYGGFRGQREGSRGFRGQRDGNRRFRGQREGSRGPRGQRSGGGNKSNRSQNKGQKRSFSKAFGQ

[1] = target: T2, Flag-DDX21 (full-length) (human) (UniProt Q9NR30); assay: co-IP
T2 sequence: T1 sequence

| Substance | binding (HA-DDX21 (human)) | binding [1] |
| --- | --- | --- |
| Flag-cGAS (cyclic GMP-AMP synthase) (from UniProt Q8N884 1-522) | binds |  |
| HA-cGAS (cyclic GMP-AMP synthase) (from UniProt Q8N884 1-522) |  | binds |
